Reference: the supplement of paper PMC10689618
Counter-ions that a name gives are not always drawn. This is one part of the list. Many values rest on one well or one pass, so single values are uncertain.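 Primary human fetal astrocytes engulfed labelled rat cortical synaptosomes, measured as a red/green ratio corrected for calcein live-cell signal and scaled to the plate median. Toxicity meant calcein falling over 30%; decreased phagocytosis meant below 70% of median above 5 µM.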

How the values were obtained:
[1] = test system: Human fetal astrocytes; assay: loss of total cells relative to no-compound high-control median (toxicity); higher = more toxic (fewer cells); details: 24 h
[2] = test system: Human fetal astrocytes; assay: synaptosome phagocytosis (pHrodo/calcein intensity ratio) relative to plate median of data wells; higher = more phagocytosis; details: 24 h

| SMILES | loss of total cells ([1]; 1.39 µM) [%] | loss of total cells ([1]; 2.78 µM) [%] | loss of total cells ([1]; 5.56 µM) [%] | loss of total cells ([1]; 11.11 µM) [%] | loss of total cells ([1]; 22.22 µM) [%] | synaptosome phagocytosis ([2]; 1.39 µM) [%] | synaptosome phagocytosis ([2]; 2.78 µM) [%] | synaptosome phagocytosis ([2]; 5.56 µM) [%] | synaptosome phagocytosis ([2]; 11.11 µM) [%] | synaptosome phagocytosis ([2]; 22.22 µM) [%] |
| --- | --- | --- | --- | --- | --- | --- | --- | --- | --- | --- |
| CC[C@H](C)[C@H](N)C1=N[C@H](C(=O)N[C@@H](CC(C)C)C(=O)N[C@H](CCC(=O)O)C(=O)N[C@H](C(=O)N[C@H]2CCCCNC(=O)[C@H](CC(N)=O)NC(=O)[C@@H](CC(=O)O)NC(=O)[C@H](Cc3cnc[nH]3)NC(=O)[C@@H](Cc3ccccc3)NC(=O)[C@H]([C@@H](C)CC)NC(=O)[C@@H](CCCN)NC2=O)[C@@H](C)CC)CS1 | 0.8 | 0.3 | 9.9 | 1.6 | 7.4 | 90.2 | 101 | 105 | 125 | 102 |
| COC(=O)[C@@]1(C)CCC[C@]2(C)c3ccc(O)c(C(C)C)c3CCC12 (stereo not given in full) | 14.1 | 18.4 | 15.2 | 21.3 | 29.5 | 125 | 69 | 100 | 61.6 | 69.3 |
| COc1ccc(-c2cc(=O)c3c(O)cc(O)cc3o2)cc1O | -12.3 | -15.5 | 7.3 | 20.3 | 10.4 | 80.2 | 96.5 | 127 | 85.9 | 68.4 |
| C=C1[C@H]2CC[C@@]3(C)[C@H](c4ccoc4)OC(=O)C[C@]13O[C@H]1C[C@H](O)C(C)(C)[C@H](CC(=O)OC)[C@]12C [3-DEOXY-3beta-HYDROXYANGOLENSIC ACID METHYL ESTER] | -22.1 | -1.3 | -19.8 | -3.9 | -10.7 | 124 | 84.9 | 93.2 | 98.1 | 85.3 |
| CC(=O)O[C@H]1C[C@@H](OC(C)=O)C(C)(C)[C@@H]2CC(=O)[C@]3(C)[C@H](CC[C@@]4(C)[C@H](c5ccoc5)OC(=O)[C@H]5O[C@]543)[C@@]12C | -1.1 | 2.7 | 45.8 | -10.3 | 1.1 | 108 | 115 | 146 | 95 | 119 |
| COc1c(O)cc2oc3cc(O)c(CC=C(C)C)c(O)c3c(=O)c2c1CC=C(C)C | -19.7 | -11.9 | -11 | 35.8 | 65.9 | 125 | 120 | 114 | 50.2 | 12 |
| CC[C@H](CC[C@@H](C)[C@H]1CC[C@H]2[C@@H]3CC=C4C[C@@H](O)CC[C@]4(C)[C@H]3CC[C@]12C)C(C)C | -9.1 | -8.6 | 41.2 | 1.9 | 30 | 106 | 82.4 | 152 | 95.5 | 148 |
| N[C@@H](Cc1c[nH]c2ccccc12)C(=O)O | 13.9 | 1.7 | -12.5 | -14.7 | 16.1 | 90 | 82 | 103 | 114 | 105 |
| OC[C@H]1O[C@@H](n2cnc3c(NCc4ccco4)ncnc32)[C@H](O)[C@@H]1O | -11.5 | -9.7 | 11 | 29.1 | 25.2 | 111 | 126 | 95.5 | 104 | 76.6 |
| CC(=O)O[C@@H]1CC2C(C)(C)C(=O)CC[C@]2(C)C2CC[C@]3(C)C(=CC(=O)O[C@H]3c3ccoc3)[C@@]21C (stereo not given in full) | 9.7 | 3.2 | 11.6 | -16.3 | 0 | 77.1 | 130 | 93.7 | 92.5 | 126 |
| NC(=O)c1ccc([N+](=O)[O-])cc1Cl | -31.5 | -50 | 14.3 | 31.8 | -9 | 130 | 106 | 130 | 123 | 108 |
| COC(=O)C[C@H]1C(C)(C)C(=O)[C@@H]2CC3=C4CC(=O)O[C@@H](c5ccoc5)[C@]4(C)CC[C@@H]3[C@@]1(C)C2=O | -22.1 | 1.3 | 22.1 | 8.4 | -9.3 | 102 | 84.4 | 136 | 113 | 95.2 |
| CN1CCN(CCCN2c3ccccc3Sc3ccc(Cl)cc32)CC1 | 12.2 | 4.4 | 7.7 | 13.5 | 18.5 | 95.1 | 115 | 110 | 57.3 | 36.6 |
| C=C1CC[C@H](O)C/C1=C/C=C1\CCC[C@]2(C)[C@@H]([C@H](C)CCCC(C)C)CC[C@@H]12 | 12.2 | -11.2 | -9.8 | 10.1 | 51.4 | 113 | 75.2 | 61.5 | 93.5 | 52.6 |
| CCCCC1(COC(=O)CCC(=O)O)C(=O)N(c2ccccc2)N(c2ccccc2)C1=O | 4.7 | 23.5 | 28.3 | 16.3 | 9.1 | 106 | 131 | 98.2 | 110 | 118 |
| CC[C@H]1OC(=O)[C@H](C)[C@@H](O[C@H]2C[C@@](C)(OC)[C@@H](O)[C@H](C)O2)[C@H](C)[C@@H](O[C@@H]2O[C@H](C)C[C@H](N(C)C)[C@H]2O)[C@](C)(O)C[C@@H](C)CN(C)[C@H](C)[C@@H](O)[C@]1(C)O | -33.9 | -40.5 | 6.2 | 3 | 6.5 | 83.1 | 91.8 | 78.1 | 90.5 | 130 |
| C[C@]12C=CC(=O)C=C1CC[C@H]1[C@@H]3C[C@@H](O)[C@](O)(C(=O)CO)[C@@]3(C)C[C@H](O)[C@@]12F | -16.9 | -13.2 | -46 | -13 | -12.5 | 102 | 116 | 117 | 125 | 101 |
| CCC(=O)c1c(O)cc(O)cc1O | 4 | 14.1 | -49.3 | 8.8 | -39.4 | 125 | 142 | 0 | 92.1 | 70.8 |
| CO[C@H]1/C=C/O[C@@]2(C)Oc3c(C)c(O)c4c(O)c(c(/C=N/N5CCN(C)CC5)c(O)c4c3C2=O)NC(=O)/C(C)=C\C=C\[C@H](C)[C@H](O)[C@@H](C)[C@@H](O)[C@@H](C)[C@H](OC(C)=O)[C@@H]1C | -0.3 | -28.1 | 4.9 | 11.2 | 8.8 | 104 | 131 | 118 | 123 | 95.9 |

| SMILES | loss of total cells ([1]; 1.39 µM) [%] | loss of total cells ([1]; 2.78 µM) [%] | loss of total cells ([1]; 5.56 µM) [%] | loss of total cells ([1]; 11.11 µM) [%] | loss of total cells ([1]; 22.22 µM) [%] | synaptosome phagocytosis ([2]; 1.39 µM) [%] | synaptosome phagocytosis ([2]; 2.78 µM) [%] | synaptosome phagocytosis ([2]; 5.56 µM) [%] | synaptosome phagocytosis ([2]; 11.11 µM) [%] | synaptosome phagocytosis ([2]; 22.22 µM) [%] |
| --- | --- | --- | --- | --- | --- | --- | --- | --- | --- | --- |
| NC(=O)NC(=O)Cc1ccccc1 | 11.6 | -17.4 | 8.7 | -11.7 | 30 | 107 | 110 | 102 | 87 | 132 |
| CC1(C)C(O[C@@H]2OC[C@@H](O)[C@H](O)[C@H]2O)CC[C@]23CC24CC[C@]2(C)[C@@H]([C@@]5(C)CC[C@@H](C(C)(C)O)O5)[C@H](O)C[C@@]2(C)C4C[C@@H](O[C@@H]2O[C@H](CO)[C@@H](O)[C@H](O)[C@H]2O)C13 (stereo not given in full) | -26.2 | 7.6 | -6.6 | 8.1 | 10.4 | 78 | 112 | 116 | 81.6 | 106 |
| COc1ccc2oc(-c3ccccc3OC)cc(=O)c2c1 | -4.9 | -6.9 | -2.2 | 20.9 | -2.2 | 126 | 116 | 132 | 115 | 100 |
| CCCc1cc(C(N)=S)ccn1 | 12.6 | 29.2 | 18.8 | 13.8 | 12.9 | 114 | 90.2 | 81.2 | 127 | 140 |
| CC(=O)N[C@@H](Cc1ccccc1)C(=O)O | -3.3 | -9.7 | -2.2 | -6.1 | 0.7 | 84.8 | 95.6 | 97.5 | 118 | 130 |
| CC1=C(/C=C/C(C)=C/C=C/C(C)=C/C=C/C=C(C)/C=C/C=C(C)/C=C/C2=C(C)C(=O)CCC2(C)C)C(C)(C)CCC1=O [CANTHAXANTHIN (euglenanone)] | -4.9 | -0.4 | 9.5 | 12.8 | 11.1 | 80.3 | 75 | 118 | 122 | 103 |
| CCN(CC)CCc1nc(-c2ccccc2)no1 | 23.5 | 11.9 | 9.4 | 3.8 | 17.4 | 116 | 124 | 144 | 126 | 95 |
| NC[C@@H]1O[C@H](O[C@H]2[C@@H](O)[C@H](O[C@@H]3[C@@H](O)[C@H](N)C[C@H](N)[C@H]3O[C@H]3O[C@H](CO)[C@@H](O)[C@H](O)[C@H]3N)O[C@@H]2CO)[C@H](N)[C@@H](O)[C@@H]1O | -32.3 | 32.5 | 5.6 | 46.9 | 19.6 | 62.9 | 125 | 65.5 | 134 | 119 |
| CC[C@H]1OC(=O)C[C@@H](O)[C@H](C)[C@@H](O[C@@H]2O[C@H](C)[C@@H](O[C@H]3C[C@@](C)(O)[C@@H](O)[C@H](C)O3)[C@H](N(C)C)[C@H]2O)[C@@H](CC=O)C[C@@H](C)C(=O)/C=C/C(C)=C/[C@@H]1CO[C@@H]1O[C@H](C)[C@@H](O)[C@@H](OC)[C@H]1OC | -29 | 16.7 | -10.6 | 46.2 | 7.8 | 109 | 137 | 106 | 153 | 118 |
| O=C(Oc1cc(O)cc2c1C[C@@H](OC(=O)c1cc(O)c(O)c(O)c1)[C@@H](c1cc(O)c(O)c(O)c1)O2)c1cc(O)c(O)c(O)c1 | -16.3 | -6.6 | 5.3 | 24.5 | 29.3 | 101 | 119 | 80.2 | 106 | 152 |
| COc1ccc([C@@H](C)C(=O)c2ccc(O)cc2O)cc1 | 12.7 | 10.6 | -24.4 | 45.2 | -18.1 | 109 | 98.9 | 76.3 | 114 | 71.4 |
| C=CC1=C(C(=O)O)N2C(=O)[C@@H](NC(=O)/C(=N\O)c3csc(N)n3)[C@H]2SC1 | -30.6 | -14.3 | 18 | 44.9 | 9.7 | 78 | 135 | 82.5 | 147 | 114 |
| CCCCCCCCCCCCCCC(C(=O)O)C(O)(CC(=O)OC)C(=O)O (stereo not given) | 36.6 | 6.6 | -10.7 | 46.5 | 21.1 | 137 | 112 | 91 | 118 | 110 |
| Cc1nnc(NS(=O)(=O)c2ccc(N)cc2)s1 | 5.6 | -16.6 | -20.9 | 3.7 | -20.4 | 123 | 132 | 114 | 102 | 106 |
| Cc1cccc(Nc2ccccc2C(=O)O)c1C | -11.6 | -34.5 | -11.1 | -7.8 | 11.3 | 108 | 99.5 | 90.3 | 74.9 | 108 |
| CN(C)CCCN1c2ccccc2Sc2ccccc21 [Promazine hydrochloride] | 8.6 | -9.2 | -14.6 | 29.1 | 44.7 | 91.5 | 81.6 | 75.6 | 51.3 | 17.1 |
| O=c1c(O)c(-c2ccc(O)cc2)oc2cc(O)cc(O)c12 | -5.4 | 25.6 | 4.3 | -7.9 | 23.5 | 102 | 116 | 108 | 92.3 | 61.3 |
| CO[C@@H]1[C@@H](OC(N)=O)[C@@H](O)[C@H](Oc2ccc3c(O)c(NC(=O)c4ccc(O)c(CC=C(C)C)c4)c(=O)oc3c2C)OC1(C)C | 6.6 | 5.8 | 21.9 | 21.1 | 23.8 | 112 | 106 | 113 | 120 | 112 |
| COc1cc(OC)c(C(C)=O)c(O)c1C | -16.3 | 10 | -18.3 | 15.5 | 1.1 | 127 | 125 | 80.6 | 110 | 108 |

Reprinted from above for reference:

| SMILES | loss of total cells ([1]; 1.39 µM) [%] | loss of total cells ([1]; 2.78 µM) [%] | loss of total cells ([1]; 5.56 µM) [%] | loss of total cells ([1]; 11.11 µM) [%] | loss of total cells ([1]; 22.22 µM) [%] | synaptosome phagocytosis ([2]; 1.39 µM) [%] | synaptosome phagocytosis ([2]; 2.78 µM) [%] | synaptosome phagocytosis ([2]; 5.56 µM) [%] | synaptosome phagocytosis ([2]; 11.11 µM) [%] | synaptosome phagocytosis ([2]; 22.22 µM) [%] |
| --- | --- | --- | --- | --- | --- | --- | --- | --- | --- | --- |
| Cc1nnc(NS(=O)(=O)c2ccc(N)cc2)s1 | 5.6 | -16.6 | -20.9 | 3.7 | -20.4 | 123 | 132 | 114 | 102 | 106 |
| Cc1cccc(Nc2ccccc2C(=O)O)c1C | -11.6 | -34.5 | -11.1 | -7.8 | 11.3 | 108 | 99.5 | 90.3 | 74.9 | 108 |
| CN(C)CCCN1c2ccccc2Sc2ccccc21 [Promazine hydrochloride] | 8.6 | -9.2 | -14.6 | 29.1 | 44.7 | 91.5 | 81.6 | 75.6 | 51.3 | 17.1 |
